Structures are written as SMILES.

In experiment [1] the test system is recombinant SOS2 and recombinant KRAS G12C or KRAS G12D. The settings on record: SOS1 replaced with its paralog SOS2.
In experiment [2] the test system is recombinant SOS1 with mutations Y884A and H905V, interaction with KRAS G12D.
The test system of experiment [3] is RAS-GTP and pERK levels in A549 xenograft tumors. The settings on record: single administration.
Experiment [4] relates to KRAS mutant cancer cells. Put plainly: cells. The conditions noted are these: read-out: IC50 of 3D growth.

For `COc1cc2nc(C)nc(N[C@H](C)c3cc(N)cc(C(F)(F)F)c3)c2cc1O[C@H]1CCOC1` [BI-3406], the “interference with KRAS binding to SOS2” value in experiment [1] is given as “lost its ability to interfere with KRAS binding”. Further, the “ability to disrupt interaction of mutated SOS1 with KRAS G12D” value in experiment [2] is “strongly impaired”. For the same molecule, the “period of reduced pERK levels” value in experiment [3] came out at 7 hours. Further, the IC50 (usually the concentration that gives 50% inhibition) in experiment [4] fell in the range of 16 to 52 nM.
